Measured values reported in the supplement of paper PMC6331611.
± gives the standard deviation of the averaged measurements. Whole data set: some 1,600 compounds, median “normalized growth (OD600, IQM-normalized) in LPM” near 1, cut for the lowest 2% near 0.014. The list shows a part of the results.

system: Salmonella enterica serovar Typhimurium SL1344; experiment: normalized growth (OD600, IQM-normalized) in LPM (fraction of plate interquartile mean); higher = more bacterial growth (less inhibition); details: LPM pH 5.8; 10 µM; 16 h

SMILES	normalized growth
COP(=S)(OC)Oc1ccc(SC)c(C)c1	0.918 ± 0.027
O=c1[nH]c2ccccc2n1CCCN1CCC(n2c(=O)[nH]c3cc(Cl)ccc32)CC1	1.02 ± 0.14
O=C([O-])c1ccccc1-c1c2cc(Br)c(=O)cc-2oc2[c]([Hg+])c([O-])c(Br)cc12.[Na+].[Na+].[OH-]	1.11 ± 0.062
CC(C)[N+](C)(CCC(C(N)=O)(c1ccccc1)c1ccccc1)C(C)C	1.02 ± 0.024
C#C[C@]1(O)CC[C@H]2[C@@H]3CCC4=CC(=O)CC[C@]4(C)[C@H]3CC[C@@]21C	1.11 ± 0.029
CC(C)CC(N(C)C)C1(c2ccc(Cl)cc2)CCC1 (stereo not given)	1.03 ± 0.036
O=C([O-])Cc1ccccc1.[Na+]	1.14 ± 0.026
COc1ccc2c(c1)[C@]13CCCC[C@@H]1[C@H](C2)N(C)CC3	0.957 ± 0.1
C=C[C@H]1CN2CC[C@H]1C[C@H]2[C@H](O)c1ccnc2ccccc12	1.01 ± 0.043
C=CC[C@]1(O)CC[C@H]2[C@@H]3CCC4=CC(=O)CCC4=C3C=C[C@@]21C	1 ± 0.02
CC(Cc1ccc(O)cc1)NCC(O)c1cc(O)cc(O)c1 (stereo not given)	1.087 ± 0.0059
C=CCN=C=S	1.02 ± 0.02
C=C[C@H]1CN2CC[C@H]1C[C@@H]2[C@@H](O)c1ccnc2ccccc12	0.962 ± 0.079
C1CCc2nnnn2CC1	1.05 ± 0.015
O=C1C=C2C=C[C@@H]3C[C@@]2(O1)[C@H]1CCCCN31	1.36 ± 0.46
Oc1noc2c1CCNC2	0.948 ± 0.041
CCCC(C)C1(CC)C(=O)NC(=S)NC1=O (stereo not given)	1.01 ± 0.054
CC(C)=CC1C(C(=O)OCc2cccc(Oc3ccccc3)c2)C1(C)C (stereo not given)	0.894 ± 0.04
NC(=O)C[S@@+]([O-])C(c1ccccc1)c1ccccc1	1.07 ± 0.036
C[CH2][Hg][S]c1ccccc1C(=O)[O-].[Na+]	0.00984 ± 0.0003

SMILES	normalized growth
Nc1ccncc1	0.827 ± 0.09
O=C(O[C@H]1C[C@H]2CC[C@@H](C1)[N+]21CCCC1)C(O)(c1ccccc1)c1ccccc1	0.916 ± 0.024
COc1ccc(C(=O)N2CCCC2=O)cc1	0.999 ± 0.015
O=C(O)CCCc1ccc(N(CCCl)CCCl)cc1	1.1 ± 0.051
CC(C)(O)C(Cl)(Cl)Cl	1 ± 0.032
Oc1cccc2cccnc12	1.032 ± 0.0034
CCCN1C[C@H](CSC)C[C@@H]2c3cccc4[nH]cc(c34)C[C@H]21	1.02 ± 0.024
N.N.[Cl][Pt][Cl]	1.1 ± 0.045
CNc1ccc(C(=O)CC(O)CCC(C)C2OC(=O)CC(O)CC(=O)CC(O)CC(O)CC(O)CC(O)CC3(O)CC(O)C(C(=O)OC)C(CC(O[C@@H]4O[C@H](C)[C@@H](O)[C@H](N)[C@@H]4O)/C=C/C=C/C=C/C=C/C=C/C=C/C=C/C2C)O3)cc1.COC(=O)C1C(O)CC2(O)CC(O)CC(O)CC(O)CC(O)CC(=O)CC(O)CC(=O)OC(C(C)CCC(O)CC(=O)c3ccc(N)cc3)C(C)/C=C/C=C/C=C/C=C/C=C/C=C/C=C/C(O[C@@H]3O[C@H](C)[C@@H](O)[C@H](N)[C@@H]3O)CC1O2 (stereo not given in full)	1.06 ± 0.03
Cc1ncc(CNC(=O)N(CCCl)N=O)c(N)n1	0.807 ± 0.044
NCCc1cc(O)c(O)cc1O	1.08 ± 0.043
O=C1C[C@@H]2OCC=C3CN4CC[C@]56c7ccccc7N1[C@H]5[C@H]2[C@H]3C[C@H]46	1.07 ± 0.019
N#Cc1nn(-c2c(Cl)cc(C(F)(F)F)cc2Cl)c(N)c1[S+]([O-])C(F)(F)F (stereo not given)	1.15 ± 0.017
CC(CCc1ccccc1)NC(C)C(O)c1ccc(O)cc1 (stereo not given)	0.974 ± 0.044
COc1cccc(C2(O)CCCCC2CN(C)C)c1 (stereo not given)	0.904 ± 0.038
CC(=O)OC1CN2CCC1CC2 (stereo not given)	0.925 ± 0.072
C[N+](C)(C)CCCCCCCCCC[N+](C)(C)C	1.07 ± 0.079
c1ccc2nc(N3CCNCC3)ccc2c1	1.07 ± 0.047
CN1C[C@H](C(=O)N[C@]2(C)O[C@@]3(O)[C@@H]4CCCN4C(=O)[C@H](Cc4ccccc4)N3C2=O)C[C@@H]2c3cccc4[nH]cc(c34)C[C@H]21	0.935 ± 0.021
C[N+]1(C)[C@@H]2CC[C@H]1C[C@@H](OC(=O)C(CO)c1ccccc1)C2 (stereo not given in full)	1.09 ± 0.038

Some of these compounds in order of molecular weight, largest number first.
SMILES	normalized growth
COc1ccc(C(=O)N2CCCC2=O)cc1	0.999 ± 0.015
CC(C)(O)C(Cl)(Cl)Cl	1 ± 0.032
CC(=O)OC1CN2CCC1CC2 (stereo not given)	0.925 ± 0.072
